The other results are listed elsewhere or left out. Further columns of the screen follow, without active or inactive calls. Most of these compounds were active or inconclusive in the main read-out, so they are no random draw. The note in brackets gives the kind of curve behind each potency; many fits are weak.

This experiment can be described thus: qHTS Assay for Lipid Storage Modulators in Drosophila S3 Cells.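 On cell number change: cells counted by Cell Tracker Red CMTPX staining in the red channel.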 The settings on record: BODIPY lipid droplet fluorescence, 18-24 h; for cell number change: measured here: cell count max response, cells fed with added oleic acid. Put shortly:
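Drosophila S3 cells loaded with oleic acid (400 uM, as added) and compounds at several concentrations; lipid droplets imaged by 488-nm laser-scanning cytometry, 500–530 nm intensity and object ratio to cell channel. Percent activity normalized to 20 uM Triacsin C.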

The mark [1] stands for this setting: measured here: cell number channel AC50, cells fed with added oleic acid.
Where [2] appears, read: measured here: lipid fluorescence (Fed channel) AC50, cells fed with added oleic acid.

As for `Cc1ccc(NS(=O)(=O)c2cccc([N+](=O)[O-])c2)nc1`, the cell number change stood at 53.2%. Further, under setting [1], the AC50 was 29.1 µM [rising, partial curve, poor fit].

As for `COc1ccccc1CC(=O)N1CCOCC1`, the cell number change amounted to 5.11%. Besides, the AC50 under setting [2] was 29.1 µM [rising, single point].

In the case of `CCCCC/C=N/NC(=O)c1[nH]c2ccc([N+](=O)[O-])cc2c1C`, the cell number change is -12.8%.

As to `CCCc1nnc(NC(=O)CCC(=O)Nc2ccc(Cl)cc2)s1`, the cell number change was -7.09%.

With `C/C(N)=C(/C#N)C(=O)CSc1nc2ccccc2c(=O)n1Cc1ccc(F)cc1`, the cell number change is -8.32%. Further, under setting [2], the AC50 was 6.51 µM [falling, single point].

As to `CC(=O)Nc1ccc(OCC(O)CN2CCCCC2C)cc1` (stereo not given), the cell number change is -16.9%. The AC50 under setting [2] was 6.51 µM [falling, single point].

For the molecule `C=CCNC(=O)/C(C#N)=C/c1ccc(C)o1`, the cell number change was 45.1%. Moreover, under setting [2], the AC50 was 0.184 µM [rising, full curve, poor fit].

Consider `O=C(Oc1ccccc1/C=C\C(=O)c1cc2ccccc2o1)c1cccc(F)c1`, for which the cell number change is -11%. Under setting [2], the AC50 is 29.1 µM [falling, single point].

`CNC(=O)COC(=O)c1ccc(NC(=O)CC#N)cc1`: the cell number change is -17.2%. For the same molecule, the AC50 under setting [2] was 0.146 µM [falling, full curve, poor fit].

Take `COc1cccc(CC(=O)OCc2csc(CC(=O)Nc3ccccc3C)n2)c1`: the cell number change is -8.6%. Moreover, the concentration at half-maximal activity (AC50) under setting [2] is 0.206 µM [falling, full curve, poor fit].

In the case of `C/C(=N\NC(=O)C1COc2ccccc2O1)c1ccccn1` (stereo not given), the cell number change turned out to be 6.09%. Also, under setting [2], the AC50 is 20.6 µM [falling, single point].

In the case of `CC(=O)Nc1ccc(C(=O)Nc2ccc(S(=O)(=O)N3CCCC3)cc2)cc1`, the cell number change is 1.02%.

As to `Cc1ccc2nc(SCC(=O)Nc3ccc(C(N)=O)cc3)[nH]c2c1`, the cell number change was found to be 24.5%.

`NC(=O)c1nn(-c2ccccc2)nc1NC(=O)Cn1nnc(-c2ccccc2)n1`: the cell number change amounted to 2.04%. Also, the AC50 under setting [2] was 0.291 µM [rising, full curve, poor fit].

For `O=C1CN(C(=O)c2ccccc2F)C(c2ccccc2)c2cc(Cl)ccc2N1` (stereo not given), the cell number change amounted to 16.2%.

On to `O=C(NC1CCCC1)C(c1ccccn1)N(C(=O)c1csnn1)c1ccc(F)cc1` (stereo not given), for which the cell number change was found to be 19.3%. Also, the AC50 under setting [2] is 6.51 µM [rising, single point].

On to `CCOc1ccccc1N(CC(=O)O)S(=O)(=O)c1ccc(C)cc1`, for which the cell number change is -5.86%. For the same molecule, the AC50 under setting [2] was 32.6 µM [falling, single point].

Regarding `COc1cccc(N/C(C)=C/C(=O)c2ccc(Br)cc2)c1`, the cell number change came out at 3.62%. Also, the AC50 under setting [2] is 7.31 µM [rising, partial curve].

Regarding `O=C(NC1CCCC1)C(c1ccccc1)N(Cc1ccco1)C(=O)Cc1cccs1` (stereo not given), the cell number change was -22.2%. For the same molecule, the half-maximal activity concentration (AC50) under setting [2] is 29.1 µM [falling, single point].

Take `Cc1ccc(S(=O)(=O)NCC(=O)N(CC2CCCO2)C(C(=O)NC2CCCC2)C(C)C)cc1` (stereo not given): the cell number change was 12.1%.

For `CCN1C/C(=C\c2cccc([N+](=O)[O-])c2)C(=O)/C(=C/c2cccc([N+](=O)[O-])c2)C1`, the cell number change was -27%. The AC50 under setting [2] was 6.51 µM [falling, partial curve, poor fit].

Take `CCN(CC)C(=O)COc1coc(CN2CCN(c3ccccc3F)CC2)cc1=O`: the cell number change is 29.5%.

As for `COc1cc(OC)cc(C(=O)OCC(=O)NC(c2ccccc2)c2ccccc2)c1`, the cell number change was 40.9%. The AC50 under setting [1] is 29.1 µM [rising, single point]. For the same molecule, the AC50 under setting [2] is 29.1 µM [falling, single point].

With `CSc1ccccc1C(=O)NCc1ccc2c(c1)OCO2`, the AC50 under setting [2] was 0.058 µM [rising, full curve, poor fit].

In the case of `Cc1cc(C(=O)OCC(=O)Nc2cc(C(F)(F)F)ccc2N2CCOCC2)c(C)o1`, the cell number change is -20.9%. The AC50 under setting [2] was 0.651 µM [rising, partial curve].

As for `COc1ccc(C2=NOC(C(=O)NCc3cccnc3)C2)cc1` (stereo not given), the cell number change came to 28.8%.

As to `C=CCn1c(C)cc(C(=O)CSc2nc3ccccc3o2)c1C`, the AC50 was 0.92 µM [rising, full curve] under setting [1] and 0.731 µM [rising, full curve] under setting [2].

`Cc1cc(NCCN2CCOCC2)n2c(nc3ccccc32)c1C#N`: the cell number change is -9.39%. The AC50 under setting [2] was 6.51 µM [rising, single point].

For `O=C(Nc1ccc(N2CCN(C(=O)c3cccs3)CC2)cc1)c1ccc([N+](=O)[O-])o1`, the cell number change was -13.3%.

Take `CCC(C(=O)NCC1CCCO1)n1nc(C)c2sc3ccccc3c2c1=O` (stereo not given): the cell number change was -2.65%. Moreover, the AC50 under setting [2] is 6.51 µM [falling, single point].

`COc1ccc(N2CCN(C(=O)c3oc4ccccc4c3NC(=O)Cc3cccc(OC)c3)CC2)cc1`: the cell number change amounted to 6.73%.

For `COc1cc(S(=O)(=O)Nc2c(C)nn(C)c2C)ccc1NC(C)=O`, the cell number change was found to be 0.926%. For the same molecule, the AC50 under setting [1] was 6.51 µM [falling, single point].

Take `CN(c1ccccc1)S(=O)(=O)c1ccc(C(=O)OCC(=O)NCc2ccco2)cc1`: the AC50 is 0.206 µM [falling, partial curve, poor fit] under setting [1] and 16.4 µM [falling, partial curve] under setting [2].

Consider `Cc1cccc(N2CCN(C(=O)n3ccnc3)CC2)c1C`, for which the AC50 under setting [1] is 4.11 µM [rising, single point].

Turning to `O=C(Nc1cccn(Cc2ccccc2Cl)c1=O)NC1CCCCC1`, the cell number change was -3.34%. Further, the half-maximal activity concentration (AC50) under setting [2] was 0.58 µM [falling, full curve].

With `c1coc(-c2cc(C3CCNCC3)[nH]n2)c1`, the cell number change was -26.5%. Also, under setting [1], the half-maximal activity concentration (AC50) was 0.651 µM [rising, partial curve, poor fit]. The AC50 under setting [2] is 0.731 µM [rising, full curve].

As to `Cc1ccc(OCc2nnc(SCC(=O)Nc3sc(C)c(C)c3C#N)n2C)cc1`, the cell number change is -18%.

With `CSC(=NC#N)N1CCN(c2ccc([N+](=O)[O-])cc2)CC1`, the AC50 under setting [1] is 6.51 µM [falling, single point] and the AC50 under setting [2] was 6.51 µM [falling, single point].

As for `CCCCn1c(=N)n(CC(=O)c2ccc(OC)cc2)c2ccccc21`, the cell number change was 5.46%. Also, under setting [2], the AC50 was 1.46 µM [rising, partial curve].

For `O=S(=O)(c1ccccc1)c1nc(Nc2cccc(O)c2)sc1Cl`, the cell number change is -24.9%. Also, under setting [2], the AC50 is 3.66 µM [falling, full curve].

For `CCCC(C)NC(=O)CSc1nnc2ccccn12` (stereo not given), the cell number change turned out to be 22.5%. Also, the half-maximal activity concentration (AC50) under setting [2] was 16.4 µM [rising, partial curve, poor fit].

`COc1cccc(NC(=O)C2CSC3(C)CCC(=O)N23)c1` (stereo not given): the cell number change stood at 2.66%. In addition, the AC50 under setting [2] was 23.1 µM [falling, partial curve, poor fit].

`CCn1c(Cc2ccccc2)nnc1SCC(=O)OC(C)C`: the cell number change is 2.29%. In addition, under setting [2], the AC50 is 29.1 µM [falling, single point].

Turning to `Cc1ccc(-c2ccc(=O)n(CCC(=O)NCCN3CCCCC3C)n2)cc1` (stereo not given), the cell number change was -37.2%. The AC50 under setting [1] is 1.3 µM [falling, full curve]. The AC50 under setting [2] was 3.66 µM [falling, full curve].

For the molecule `O=S(=O)(c1ccccc1)N1CCN=C1SCc1ccccc1`, the cell number change amounted to 2.37%. The AC50 under setting [1] was 2.91 µM [rising, single point].

`CN(C)S(=O)(=O)c1ccc(C(=O)OCC(=O)NC(=O)NCc2ccccc2)cc1`: the cell number change is 46.2%. Under setting [1], the AC50 was 0.116 µM [rising, full curve]. For the same molecule, the AC50 under setting [2] was 29.1 µM [rising, partial curve, poor fit].

For the molecule `CCCC(=O)Nc1cc(OC)c(OC)cc1C(=O)O`, the cell number change amounted to 9.61%. Also, the AC50 under setting [1] is 4.11 µM [falling, single point]. The AC50 under setting [2] was 0.731 µM [falling, partial curve].

Consider `Cn1nnc2sc3c(c2c1=O)CCCC3`, for which the cell number change amounted to 40.1%. Under setting [1], the AC50 was 29.1 µM [rising, single point].

Take `COc1ccccc1NS(=O)(=O)c1cc(NC(=O)c2sccc2C)ccc1N1CCCC1`: the cell number change is 19.4%.

For the molecule `CCN(CCn1cccn1)C(=O)c1cc(COc2ccc(F)cc2Cl)on1`, the cell number change is -36.3%. Further, under setting [1], the AC50 was 23.1 µM [falling, single point]. The AC50 under setting [2] is 29.1 µM [falling, single point].

Regarding `Oc1ccccc1NCC(O)Cn1ccc2ccccc21` (stereo not given), the cell number change is -9.21%.

For `O=C(Nc1cccc2ccccc12)NC1CCCCC1`, the cell number change is -25%.

For `CC(C)C(NC(=O)C1CCCCC1)C(=O)Nc1ccccn1` (stereo not given), the AC50 under setting [1] was 0.651 µM [rising, single point].

As to `CS(=O)(=O)N1CCC(C(=O)Nc2cccc(C(F)(F)F)c2)CC1`, the cell number change was -12.5%.

Turning to `Cc1cc(C)n(C(=O)CCC(=O)Nc2ccc(C)c(C)c2)n1`, the cell number change is -22.5%. For the same molecule, the AC50 under setting [2] was 11.6 µM [falling, single point].

For the molecule `CCOC(=O)COc1ccc(S(=O)(=O)Nc2ccc3c(c2)OCCO3)cc1`, the cell number change was -42.8%. Also, the AC50 under setting [1] was 20.6 µM [falling, partial curve]. The AC50 under setting [2] is 7.31 µM [falling, partial curve].

On to `C=C1c2ccccc2NC(=S)N1Cc1ccc2c(c1)OCO2`, for which the cell number change stood at 41.9%. Besides, the AC50 under setting [1] is 11.6 µM [rising, single point].

As for `COc1cc(S(=O)(=O)N2CCN(C)CC2)c(OC)cc1Cl`, the cell number change was -29.5%. Further, under setting [1], the AC50 is 0.291 µM [falling, full curve, poor fit]. Further, the AC50 under setting [2] is 0.651 µM [falling, partial curve, poor fit].

Regarding `CC(C)NS(=O)(=O)c1ccc(OCC(=O)NCc2ccc3c(c2)OCO3)c(Cl)c1`, the cell number change turned out to be 8%.

For `CN(C)C(/C=C/Nc1ccc(C#N)cc1)=C(C#N)C#N`, the cell number change is -25.6%. The AC50 under setting [2] is 32.6 µM [falling, single point].

Turning to `Cc1ccc(NC(=O)COc2ccc(/C=N/NC(=O)CSCc3ccccc3)cc2)cc1`, the AC50 is 4.11 µM [falling, partial curve, poor fit] under setting [1] and 2.31 µM [falling, partial curve] under setting [2].

Consider `O=C(Nc1ccc(F)cc1)c1cc(-c2ccccn2)nc2c(Cl)cccc12`, for which the cell number change came to 10.2%.

On to `O=C(c1ccco1)N1CCN(C2c3ccccc3-c3ccccc32)CC1`, for which the cell number change was -8.79%.

For the molecule `CC(=O)Nc1ccc(N/C=C/C(=O)c2ccc(Br)cc2)cc1`, the cell number change was 7.02%. Besides, the concentration at half-maximal activity (AC50) under setting [2] was 29.1 µM [rising, single point].

The record behind these values is PubChem BioAssay AID2685 (National Center for Advancing Translational Sciences (NCATS), 2010).
